Results published in publication PMC6461669.
No constants are given. Whether binding was seen depends on the method and setting. Binding seen in cells or lysates may run through a third protein. Some entries that bind do so weakly or less than the wild type. For part of these data: Where a sequence is shown, tags or fusion partners need not be part of it.

By UniProt entry, the sequences of proteins in these tests, tags left out. Where a name states a change or a piece, a line headed by the entry shows the natural chain unless it says otherwise.
UniProt P42227: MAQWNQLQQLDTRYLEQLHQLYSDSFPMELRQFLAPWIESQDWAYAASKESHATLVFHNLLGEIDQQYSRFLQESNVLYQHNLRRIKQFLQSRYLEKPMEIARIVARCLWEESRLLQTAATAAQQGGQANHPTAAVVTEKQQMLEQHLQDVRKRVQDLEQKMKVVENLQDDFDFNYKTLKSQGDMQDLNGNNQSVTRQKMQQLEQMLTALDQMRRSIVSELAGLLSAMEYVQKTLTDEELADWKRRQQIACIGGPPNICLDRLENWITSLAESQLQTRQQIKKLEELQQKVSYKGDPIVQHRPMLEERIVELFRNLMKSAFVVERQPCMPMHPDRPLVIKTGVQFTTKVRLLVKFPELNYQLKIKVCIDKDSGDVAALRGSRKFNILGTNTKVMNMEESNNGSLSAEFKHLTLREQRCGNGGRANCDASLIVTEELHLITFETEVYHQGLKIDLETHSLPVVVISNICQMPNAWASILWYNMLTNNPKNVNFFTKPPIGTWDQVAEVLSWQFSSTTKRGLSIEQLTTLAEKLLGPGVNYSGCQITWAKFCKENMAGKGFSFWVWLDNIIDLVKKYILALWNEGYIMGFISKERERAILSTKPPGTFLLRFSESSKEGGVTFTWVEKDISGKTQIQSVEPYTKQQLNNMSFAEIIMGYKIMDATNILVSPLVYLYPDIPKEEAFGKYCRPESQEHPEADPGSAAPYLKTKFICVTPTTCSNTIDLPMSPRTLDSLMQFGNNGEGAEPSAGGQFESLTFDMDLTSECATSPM
UniProt P40763: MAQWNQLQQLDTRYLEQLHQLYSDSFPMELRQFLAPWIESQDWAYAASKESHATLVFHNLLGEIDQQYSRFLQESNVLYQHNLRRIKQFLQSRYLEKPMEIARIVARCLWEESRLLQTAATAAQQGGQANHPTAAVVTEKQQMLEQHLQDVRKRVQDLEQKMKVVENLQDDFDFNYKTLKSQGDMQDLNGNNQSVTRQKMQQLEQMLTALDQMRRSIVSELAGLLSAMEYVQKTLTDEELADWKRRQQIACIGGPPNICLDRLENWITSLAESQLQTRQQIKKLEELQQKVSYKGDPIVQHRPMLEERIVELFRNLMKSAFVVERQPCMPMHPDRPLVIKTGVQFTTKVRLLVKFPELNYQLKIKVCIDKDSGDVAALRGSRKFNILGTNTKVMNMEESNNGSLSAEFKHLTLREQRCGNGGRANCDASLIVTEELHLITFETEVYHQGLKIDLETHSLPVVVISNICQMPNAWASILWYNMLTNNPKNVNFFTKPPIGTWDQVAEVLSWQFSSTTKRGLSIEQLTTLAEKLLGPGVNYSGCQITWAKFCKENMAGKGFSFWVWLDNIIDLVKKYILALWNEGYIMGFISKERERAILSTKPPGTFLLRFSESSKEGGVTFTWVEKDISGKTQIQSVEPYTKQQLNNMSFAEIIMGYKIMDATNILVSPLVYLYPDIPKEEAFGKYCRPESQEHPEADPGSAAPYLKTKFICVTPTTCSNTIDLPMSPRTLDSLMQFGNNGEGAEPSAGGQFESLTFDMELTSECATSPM
UniProt P70365: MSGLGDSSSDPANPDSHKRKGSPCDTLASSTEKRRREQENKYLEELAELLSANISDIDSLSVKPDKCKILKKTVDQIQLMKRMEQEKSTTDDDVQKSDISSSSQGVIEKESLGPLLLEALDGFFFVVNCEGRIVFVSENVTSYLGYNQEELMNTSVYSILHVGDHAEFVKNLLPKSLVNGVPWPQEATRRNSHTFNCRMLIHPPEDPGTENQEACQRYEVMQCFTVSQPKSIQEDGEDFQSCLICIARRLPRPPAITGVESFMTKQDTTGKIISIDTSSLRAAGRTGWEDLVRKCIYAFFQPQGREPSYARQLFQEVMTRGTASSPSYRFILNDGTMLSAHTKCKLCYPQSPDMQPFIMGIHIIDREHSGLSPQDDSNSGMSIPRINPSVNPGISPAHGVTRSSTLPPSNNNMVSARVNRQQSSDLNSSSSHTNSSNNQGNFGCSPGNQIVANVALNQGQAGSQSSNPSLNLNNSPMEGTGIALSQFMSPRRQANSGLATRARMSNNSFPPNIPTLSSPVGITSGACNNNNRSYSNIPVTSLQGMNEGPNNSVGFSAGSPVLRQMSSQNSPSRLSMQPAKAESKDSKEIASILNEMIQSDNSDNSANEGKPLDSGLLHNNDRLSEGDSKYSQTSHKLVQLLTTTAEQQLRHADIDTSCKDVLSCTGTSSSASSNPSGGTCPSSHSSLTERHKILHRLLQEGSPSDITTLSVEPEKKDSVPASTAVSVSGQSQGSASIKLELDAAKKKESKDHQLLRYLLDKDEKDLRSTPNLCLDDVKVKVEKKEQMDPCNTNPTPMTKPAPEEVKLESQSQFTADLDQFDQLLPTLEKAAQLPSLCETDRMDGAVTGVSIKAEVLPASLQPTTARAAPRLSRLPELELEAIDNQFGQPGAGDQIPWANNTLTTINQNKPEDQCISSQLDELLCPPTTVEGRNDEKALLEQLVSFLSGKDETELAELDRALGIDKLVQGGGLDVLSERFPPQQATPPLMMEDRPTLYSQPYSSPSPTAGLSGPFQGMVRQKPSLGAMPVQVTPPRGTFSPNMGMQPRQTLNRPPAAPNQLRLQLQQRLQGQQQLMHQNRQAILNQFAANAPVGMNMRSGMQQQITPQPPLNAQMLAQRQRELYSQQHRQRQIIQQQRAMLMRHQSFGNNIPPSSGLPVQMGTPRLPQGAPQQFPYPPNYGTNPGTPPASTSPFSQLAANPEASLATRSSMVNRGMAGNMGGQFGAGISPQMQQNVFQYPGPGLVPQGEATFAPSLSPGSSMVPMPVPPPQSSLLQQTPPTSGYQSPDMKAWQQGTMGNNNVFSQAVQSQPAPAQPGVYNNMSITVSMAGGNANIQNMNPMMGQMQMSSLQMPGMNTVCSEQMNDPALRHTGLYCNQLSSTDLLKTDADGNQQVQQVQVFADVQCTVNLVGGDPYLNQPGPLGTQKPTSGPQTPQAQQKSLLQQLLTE
UniProt Q15788: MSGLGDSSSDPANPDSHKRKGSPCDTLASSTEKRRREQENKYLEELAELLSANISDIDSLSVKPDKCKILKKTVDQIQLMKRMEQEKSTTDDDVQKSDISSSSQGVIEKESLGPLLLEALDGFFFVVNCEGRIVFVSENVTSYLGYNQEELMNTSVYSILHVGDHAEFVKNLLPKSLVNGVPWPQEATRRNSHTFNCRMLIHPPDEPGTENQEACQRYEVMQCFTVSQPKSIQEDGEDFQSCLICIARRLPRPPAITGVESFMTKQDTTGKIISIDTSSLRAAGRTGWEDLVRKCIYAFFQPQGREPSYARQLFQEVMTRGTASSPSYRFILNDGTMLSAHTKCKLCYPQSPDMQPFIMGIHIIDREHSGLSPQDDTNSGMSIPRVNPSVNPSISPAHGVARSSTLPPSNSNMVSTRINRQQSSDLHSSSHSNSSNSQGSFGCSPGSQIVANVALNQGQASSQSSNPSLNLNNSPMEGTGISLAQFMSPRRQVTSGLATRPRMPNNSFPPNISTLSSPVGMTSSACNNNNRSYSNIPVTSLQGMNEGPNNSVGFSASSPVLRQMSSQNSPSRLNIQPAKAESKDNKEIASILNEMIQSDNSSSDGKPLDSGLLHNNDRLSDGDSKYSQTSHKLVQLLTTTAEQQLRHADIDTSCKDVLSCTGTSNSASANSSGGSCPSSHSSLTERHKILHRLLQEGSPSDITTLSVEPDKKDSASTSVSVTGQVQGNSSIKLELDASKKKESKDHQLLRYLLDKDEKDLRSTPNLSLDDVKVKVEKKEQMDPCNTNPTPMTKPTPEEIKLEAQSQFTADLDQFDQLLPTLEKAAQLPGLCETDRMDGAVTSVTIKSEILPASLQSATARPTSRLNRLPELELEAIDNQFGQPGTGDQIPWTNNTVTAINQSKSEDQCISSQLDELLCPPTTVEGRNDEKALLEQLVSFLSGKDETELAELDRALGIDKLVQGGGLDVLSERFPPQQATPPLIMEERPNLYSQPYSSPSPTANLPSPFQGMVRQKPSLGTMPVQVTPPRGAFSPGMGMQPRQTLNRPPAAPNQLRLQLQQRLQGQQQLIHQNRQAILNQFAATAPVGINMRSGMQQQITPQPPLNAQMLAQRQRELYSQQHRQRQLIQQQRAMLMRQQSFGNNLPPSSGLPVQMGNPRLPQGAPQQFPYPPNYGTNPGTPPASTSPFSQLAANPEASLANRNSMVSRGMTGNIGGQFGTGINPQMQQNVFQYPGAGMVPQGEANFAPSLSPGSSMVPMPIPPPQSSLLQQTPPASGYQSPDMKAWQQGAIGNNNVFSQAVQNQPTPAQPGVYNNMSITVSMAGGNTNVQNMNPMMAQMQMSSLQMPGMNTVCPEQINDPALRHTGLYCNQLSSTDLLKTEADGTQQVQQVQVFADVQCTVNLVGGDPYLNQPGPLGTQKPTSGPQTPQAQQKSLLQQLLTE

How the values were obtained:
[1] = target: phosphorylated STAT3 (pSTAT3), endogenous in mouse hypothalamus (mouse (endogenous in hypothalamus)) (UniProt P42227); assay: co-IP; hypothalamus lysates of C57Bl6 wild type mice, time course after i.p. leptin (5 mg/kg); anti-Phospho-STAT3 (Tyr705) sepharose beads or anti-SRC-1 (128E7) with Protein A/G agarose; immunoblot; lysis buffer 50 mM Tris-HCl pH 8.0, 50 mM KCl, 5 mM EDTA, 0.5% Nonidet P-40
[2] = target: phosphorylated human STAT3 (pSTAT3), Flag-tagged (human) (UniProt P40763); assay: co-IP; HEK293 cells co-transfected with leptin receptor, STAT3 and mutant SRC-1 vector (or empty vector), leptin 200 ng/ml 15 min; anti-pSTAT3 pull-down from lysate, blot with anti-SRC-1 (total SRC-1)
[3] = target: T1, Flag-tagged human thyroid hormone receptor-β (human) (UniProt P10828); assay: co-IP; equal amounts of total protein of SRC-1 WT or mutant lysates incubated with equal volumes of Flag-THRβ lysate overnight at 4 °C with 1 μM T3; anti-Flag beads 1 h, 6 washes; Western blot
T1 sequence: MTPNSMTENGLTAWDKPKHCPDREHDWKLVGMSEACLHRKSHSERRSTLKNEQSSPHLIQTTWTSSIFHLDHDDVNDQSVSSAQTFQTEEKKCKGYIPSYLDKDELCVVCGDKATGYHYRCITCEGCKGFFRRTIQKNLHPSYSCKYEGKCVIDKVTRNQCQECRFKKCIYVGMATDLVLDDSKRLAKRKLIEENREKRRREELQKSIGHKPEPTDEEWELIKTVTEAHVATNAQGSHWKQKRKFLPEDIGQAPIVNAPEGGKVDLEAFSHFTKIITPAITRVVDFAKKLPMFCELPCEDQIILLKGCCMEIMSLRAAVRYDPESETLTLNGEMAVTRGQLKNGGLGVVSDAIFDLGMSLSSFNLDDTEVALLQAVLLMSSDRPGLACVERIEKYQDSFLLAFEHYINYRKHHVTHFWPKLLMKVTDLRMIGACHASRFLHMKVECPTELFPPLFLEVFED

[4] = target: phosphorylated human STAT3 (pSTAT3), Flag-tagged (human) (UniProt P40763); assay: co-IP; pSTAT3 from leptin-treated HEK293 lysate held on anti-phospho-STAT3 sepharose beads (4 h, 4 °C), washed, aliquoted equally and incubated overnight with comparable amounts of SRC-1-HA (WT or mutant) in HEK293 lysate; blot with anti-HA; only the target purified
[5] = target: T2, Flag-tagged human vitamin D receptor (human) (UniProt P11473); assay: co-IP; Flag-tagged receptor from ligand-treated HEK293 lysate (17β-estradiol, calcitriol, dexamethasone or rosiglitazone, 30 min) held on anti-Flag beads (4 h, 4 °C), washed, aliquoted equally and incubated overnight with comparable amounts of SRC-1 (WT or mutant) in HEK293 lysate; Western blot; only the target purified
T2 sequence: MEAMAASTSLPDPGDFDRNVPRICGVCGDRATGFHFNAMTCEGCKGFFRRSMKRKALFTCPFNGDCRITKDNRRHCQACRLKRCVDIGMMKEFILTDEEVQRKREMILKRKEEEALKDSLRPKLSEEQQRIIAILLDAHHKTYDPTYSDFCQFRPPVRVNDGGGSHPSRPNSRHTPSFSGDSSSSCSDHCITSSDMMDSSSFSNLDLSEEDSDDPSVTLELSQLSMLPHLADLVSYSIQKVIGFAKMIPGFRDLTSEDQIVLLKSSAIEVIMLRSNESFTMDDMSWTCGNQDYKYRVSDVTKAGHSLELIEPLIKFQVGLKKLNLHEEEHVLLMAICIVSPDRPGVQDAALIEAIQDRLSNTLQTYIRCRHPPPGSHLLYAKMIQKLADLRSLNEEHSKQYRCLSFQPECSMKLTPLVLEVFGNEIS

With “SRC-1, endogenous in mouse hypothalamus (from UniProt P70365 1-1447)” the binding [1] was “binds”.
“endogenous SRC-1 of HEK293 cells (WT SRC-1; detected as total SRC-1) (from UniProt Q15788 1-1441)” was tested, and the binding [2] was “binds”.
“long isoform of human SRC-1-HA (WT) (from UniProt Q15788 1-1441)” was tested, and the binding [3] was “binds”, the binding [4] was “binds” and the binding [5] was “binds”.
In the case of “long isoform of human SRC-1-HA, S738L (from UniProt Q15788 1-1441)”, the binding [4] is reported as “binds”.
